This is an account of results in patent US7999089, “RNA aptamers and the uses thereof” (Industry-Academic Cooperation Foundation, Dankook University).

Chains of the proteins cited; added tags and fusions are not shown. Residues count along the entry.
UniProt P35222, residues 2-781: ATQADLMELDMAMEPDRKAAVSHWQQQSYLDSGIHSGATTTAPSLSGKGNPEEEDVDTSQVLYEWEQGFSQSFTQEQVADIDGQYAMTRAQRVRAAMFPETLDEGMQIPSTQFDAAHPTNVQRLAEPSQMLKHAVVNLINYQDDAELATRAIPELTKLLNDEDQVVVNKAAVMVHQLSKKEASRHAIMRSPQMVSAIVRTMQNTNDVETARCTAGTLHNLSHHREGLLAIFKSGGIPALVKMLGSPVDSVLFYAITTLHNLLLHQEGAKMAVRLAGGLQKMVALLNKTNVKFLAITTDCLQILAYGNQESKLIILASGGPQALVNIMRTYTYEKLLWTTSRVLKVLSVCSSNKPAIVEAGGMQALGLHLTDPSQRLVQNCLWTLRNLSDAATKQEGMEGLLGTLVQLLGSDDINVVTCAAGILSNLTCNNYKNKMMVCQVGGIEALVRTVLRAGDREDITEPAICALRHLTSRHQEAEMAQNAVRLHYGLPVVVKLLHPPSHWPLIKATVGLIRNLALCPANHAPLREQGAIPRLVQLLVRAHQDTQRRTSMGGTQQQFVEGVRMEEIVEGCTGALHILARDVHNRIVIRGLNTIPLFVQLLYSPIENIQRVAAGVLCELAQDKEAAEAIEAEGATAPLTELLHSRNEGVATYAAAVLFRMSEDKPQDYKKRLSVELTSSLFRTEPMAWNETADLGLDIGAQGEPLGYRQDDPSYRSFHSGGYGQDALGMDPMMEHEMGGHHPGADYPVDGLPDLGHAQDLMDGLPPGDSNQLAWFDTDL
UniProt P12830, residues 155-882: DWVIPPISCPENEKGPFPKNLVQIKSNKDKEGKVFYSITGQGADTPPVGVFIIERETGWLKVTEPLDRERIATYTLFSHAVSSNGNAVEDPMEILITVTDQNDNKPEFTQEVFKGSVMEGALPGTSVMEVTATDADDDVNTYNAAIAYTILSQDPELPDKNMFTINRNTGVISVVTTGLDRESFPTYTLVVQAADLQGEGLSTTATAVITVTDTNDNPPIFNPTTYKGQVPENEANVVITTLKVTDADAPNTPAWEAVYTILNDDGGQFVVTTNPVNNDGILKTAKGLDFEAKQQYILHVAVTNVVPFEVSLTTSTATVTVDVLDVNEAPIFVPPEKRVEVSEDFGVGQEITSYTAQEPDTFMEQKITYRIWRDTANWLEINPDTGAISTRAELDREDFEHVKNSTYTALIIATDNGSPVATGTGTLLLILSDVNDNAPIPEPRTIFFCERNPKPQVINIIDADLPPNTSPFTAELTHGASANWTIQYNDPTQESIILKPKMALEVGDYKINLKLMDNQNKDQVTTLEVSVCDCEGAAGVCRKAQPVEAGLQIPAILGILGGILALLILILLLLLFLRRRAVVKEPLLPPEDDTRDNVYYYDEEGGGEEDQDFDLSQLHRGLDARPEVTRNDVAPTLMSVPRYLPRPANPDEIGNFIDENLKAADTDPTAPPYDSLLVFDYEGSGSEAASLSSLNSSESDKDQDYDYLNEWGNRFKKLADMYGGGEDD

Results are given in words; binding and its absence hold for the method and conditions named. In cells and extracts the contact can be indirect. Some binding calls cover weakened binding; strength is not graded here.

The target in the test is β-catenin (endogenous, HCT116 cells) (human) (UniProt P35222). The test can be described thus: co-immunoprecipitation from HCT116 cells expressing U6 vector or U6-aptamer, anti-β-catenin antibody.

On to “E-cadherin (from UniProt P12830 155-882)”, for which the binding result is given as “binds”.
